Measured values from paper doi:10.1101/2021.04.14.439766.
These are yes or no findings as the source states them, for the method shown. In cells and extracts the contact can be indirect. These calls come from enrichment with a bait or labelling near it, and not all partners need be listed.

Amino acid sequences for entries named in this document (tags omitted).
UniProt P68104: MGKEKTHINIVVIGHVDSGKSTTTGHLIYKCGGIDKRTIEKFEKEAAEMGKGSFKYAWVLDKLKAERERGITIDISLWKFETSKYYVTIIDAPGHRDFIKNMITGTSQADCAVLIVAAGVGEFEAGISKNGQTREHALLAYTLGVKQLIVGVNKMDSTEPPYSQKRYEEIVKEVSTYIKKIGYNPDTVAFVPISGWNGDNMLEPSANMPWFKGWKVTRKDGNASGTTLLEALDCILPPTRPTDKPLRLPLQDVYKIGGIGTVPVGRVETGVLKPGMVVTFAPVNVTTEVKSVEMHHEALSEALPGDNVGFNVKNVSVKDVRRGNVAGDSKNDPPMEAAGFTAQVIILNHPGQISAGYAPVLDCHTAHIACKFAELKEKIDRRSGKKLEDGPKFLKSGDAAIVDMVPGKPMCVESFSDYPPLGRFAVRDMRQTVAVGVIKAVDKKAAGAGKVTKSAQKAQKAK

Target: T1, DEP domain-containing 1 (DEPDC1) (human (endogenous in osteosarcoma cells)) (UniProt Q5TB30)
T1 sequence: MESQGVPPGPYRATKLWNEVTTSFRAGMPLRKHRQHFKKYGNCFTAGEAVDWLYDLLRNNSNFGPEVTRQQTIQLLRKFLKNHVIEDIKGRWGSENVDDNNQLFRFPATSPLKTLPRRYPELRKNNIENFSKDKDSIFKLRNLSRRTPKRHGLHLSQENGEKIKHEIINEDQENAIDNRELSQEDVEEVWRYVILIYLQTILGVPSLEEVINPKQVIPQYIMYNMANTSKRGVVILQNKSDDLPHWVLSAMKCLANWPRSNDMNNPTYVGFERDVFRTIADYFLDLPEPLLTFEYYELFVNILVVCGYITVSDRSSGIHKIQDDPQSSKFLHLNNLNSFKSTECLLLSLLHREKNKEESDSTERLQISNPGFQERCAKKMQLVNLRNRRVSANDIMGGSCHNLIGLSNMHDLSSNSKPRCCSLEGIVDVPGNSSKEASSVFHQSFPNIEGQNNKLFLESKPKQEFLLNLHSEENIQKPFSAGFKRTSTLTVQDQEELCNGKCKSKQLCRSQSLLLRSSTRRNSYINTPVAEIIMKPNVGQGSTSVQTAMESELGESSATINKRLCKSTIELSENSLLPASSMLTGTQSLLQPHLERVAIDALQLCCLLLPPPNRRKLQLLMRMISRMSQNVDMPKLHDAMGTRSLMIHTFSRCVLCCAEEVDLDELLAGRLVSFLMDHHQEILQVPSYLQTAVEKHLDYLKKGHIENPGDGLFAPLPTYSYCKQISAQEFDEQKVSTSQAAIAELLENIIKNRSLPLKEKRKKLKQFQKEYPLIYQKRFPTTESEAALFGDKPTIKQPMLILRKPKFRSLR
Assay: affinity purification with mass spectrometry

## Elongation Factor 1-alpha 1 (EEF1A1) (from UniProt P68104 1-462)
  binding: binds
